This note sets out measurements from PubChem BioAssay AID330 (DTP/NCI, 2004).

The list shows only some results of the screen, not a fair sample: it gathers tests that were run many times, whatever their T/C, doses with no T/C, and many T/C values between a quarter and a half above the control. Other doses and runs of a compound stand elsewhere. T/C gives the treated animals as a percentage of the vehicle group. Some entries give survivors of the animals treated and no T/C: the source files T/C as zero there, which appears to mark a toxic dose or a test without result, not a measured value. Some survivor counts are full or nearly so, which does not show that the dose was tolerated: the source hardly ever lists a survival T/C far under the control, and the zero likely stands for such cases as well. Survivors were counted at the toxicity check, usually on the fifth day, unless a day is given; later deaths do not show. Schedules are NCI's codes, read here as Q, the interval in days (D) or hours (H), X, the number of doses. Some entries hold several experiments; the values are given in rising order. For survival time, the PubChem record calls one and a half times the control and up active, and a quarter to a half above the control has no call in these data; cut-offs in other NCI protocols can differ. Some T/C values are followed by the survivors on the day toxicity was checked, most often the fifth; without a count, all were alive then.

The assay relates to P388 leukemia ip, CD2F1 mice, survival T/C. Kind of assay: NCI In Vivo Anticancer Drug Screen. Data for tumor model P388 Leukemia (intraperitoneal) in CD2F1 (CDF1) mice. Conditions: T/C endpoint: median survival time, higher T/C = longer survival.
Where [1] appears, read: dose: 8.0 mg/kg/injection, schedule: Q01DX009 (ip), vehicle: Klucel (hydroxypropylcellulose) (HPC).
Where [2] appears, read: dose: 20.0 mg/kg/injection, schedule: Q01DX009 (ip), vehicle: saline with Tween-80.
[3] abbreviates: dose: 100.0 mg/kg/injection, schedule: Q01DX009 (ip), vehicle: saline with Tween-80.
Setting [4] is: dose: 50.0 mg/kg/injection, schedule: Q01DX009 (ip), vehicle: saline.
[5] abbreviates: dose: 240.0 mg/kg/injection, schedule: Q01DX005 (ip), vehicle: saline with Tween-80.

`CCSCC1C(=O)C23CC1CCC2C12COC(O)C1C(C)(C)C(O)CC2OC3=O` (stereo not drawn): for the setting “dose: 25.0 mg/kg/injection, schedule: Q01DX009 (ip), vehicle: Klucel (hydroxypropylcellulose) (HPC)”, the survivor count is reported as 6 of 6.

On to `CC1OC1C(=O)C1(O)C(C)C(O)C23OC2(C(O)c2c(O)cccc2C3=O)C1O` (stereo not drawn), for which the T/C was 129 % of control (dose: 2.0 mg/kg/injection, schedule: Q01DX009 (ip), vehicle: Klucel (hydroxypropylcellulose) (HPC)); 146 % of control (dose: 4.0 mg/kg/injection, schedule: Q01DX009 (ip), vehicle: Klucel (hydroxypropylcellulose) (HPC)); 148 % of control [5 of 6 alive] under setting [1]. Further, the survivor count is reported as 6 of 6 under setting [1] and 3 of 6 (dose: 16.0 mg/kg/injection, schedule: Q01DX009 (ip), vehicle: Klucel (hydroxypropylcellulose) (HPC)).

Turning to `c1cc2c3c(cccc3c1)-c1nc3ccccc3nc1-2`, the survivor count (dose: 200.0 mg/kg/injection, schedule: Q01DX009 (ip), vehicle: Klucel (hydroxypropylcellulose) (HPC)) was 4 of 6.

As for `CC(C)(O)/C=C/C(=O)[C@](C)(O)[C@H]1[C@H](O)C[C@@]2(C)[C@@H]3CC=C4[C@@H](C[C@H](O)C(=O)C4(C)C)[C@]3(C)C(=O)C[C@]12C`, the T/C is 137 % of control [4 of 6 alive] (dose: 0.42 mg/kg/injection, schedule: Q01DX009 (ip), vehicle: saline + Tween-80 + alcohol); 146 % of control [5 of 6 alive] (dose: 0.63 mg/kg/injection, schedule: Q01DX009 (ip), vehicle: saline + Tween-80 + alcohol); 131 % of control (dose: 1.0 mg/kg/injection, schedule: Q01DX010 (ip), vehicle: saline). The survivor count is recorded as 0 of 6 (dose: 1.4 mg/kg/injection, schedule: Q01DX009 (ip), vehicle: saline with Tween-80); 0 of 6 (dose: 2.0 mg/kg/injection, schedule: Q01DX009 (ip), vehicle: saline with Tween-80); 0 of 6 (dose: 2.0 mg/kg/injection, schedule: Q01DX009 (ip), vehicle: saline); 3 of 6 (dose: 2.0 mg/kg/injection, schedule: Q01DX010 (ip), vehicle: saline); 0 of 6 (dose: 2.2 mg/kg/injection, schedule: Q01DX009 (ip), vehicle: saline with Tween-80); 0 of 6 (dose: 4.0 mg/kg/injection, schedule: Q01DX009 (ip), vehicle: saline). For the same molecule, the survivor count is, setting by setting: (dose: 5.0 mg/kg/injection, schedule: Q01DX009 (ip), vehicle: saline with Tween-80) 0 of 6; (dose: 10.0 mg/kg/injection, schedule: Q01DX009 (ip), vehicle: saline with Tween-80) 0 of 6; under setting [2], 0 of 6; (dose: 40.0 mg/kg/injection, schedule: Q01DX009 (ip), vehicle: saline with Tween-80) 0 of 6.

For `Oc1c(CN2CCCC2)cc(Nc2cc(/C=C/c3ccc(Cl)cc3)nc(/C=C\c3ccc(Cl)cc3)n2)cc1CN1CCCC1`, the survivor count under setting [2] is listed as 6 of 6.

With `c1ccc2c(c1)[nH]c1ccncc12`, the survivor count under setting [3] is given as 3 of 6.

For the molecule `CC1(C)COC(=O)/C1=C1\SC(=S)NC1=O`, the survivor count (dose: 400.0 mg/kg/injection, schedule: Q04DX003 (ip), vehicle: saline) is 4 of 6.

On to `COc1cc(Br)c2nsnc2c1`, for which the survivor count (dose: 200.0 mg/kg/injection, schedule: Q01DX005 (ip), vehicle: saline with Tween-80) is 0 of 6.

For the molecule `C[CH2][Pb]([CH2]C)([CH2]C)[n]1cnc2ccccc21`, the survivor count runs as follows: (dose: 6.0 mg/kg/injection, schedule: Q01DX009 (ip), vehicle: Klucel (hydroxypropylcellulose) (HPC)) 4 of 6; (dose: 12.0 mg/kg/injection, schedule: Q01DX009 (ip), vehicle: Klucel (hydroxypropylcellulose) (HPC)) 0 of 6.

On to `CCCCCC(CN(C)C)C(O)/C=C/c1ccc(Cl)cc1Cl` (stereo not drawn), for which the survivor count reads like this: under setting [4], 4 of 6; (dose: 100.0 mg/kg/injection, schedule: Q01DX009 (ip), vehicle: saline) 0 of 6; (dose: 200.0 mg/kg/injection, schedule: Q01DX009 (ip), vehicle: saline) 0 of 6.

As to `FC(F)(F)c1cc(Nc2nc(-c3ccccc3)nc3c2C(=NCc2ccco2)OC3=NCc2ccco2)ccc1Cl`, the survivor count is on record as 6 of 6 (dose: 60.0 mg/kg/injection, schedule: Q01DX005 (ip), vehicle: saline with Tween-80); 6 of 6 (dose: 120.0 mg/kg/injection, schedule: Q01DX005 (ip), vehicle: saline with Tween-80); 6 of 6 under setting [5].

Take `COc1c2c(cc3c1-c1ccc(OC)c(=O)cc1C(NC(C)=O)CC3)OCO2` (stereo not drawn): the survivor count is, setting by setting: (dose: 1.88 mg/kg/injection, schedule: Q01DX009 (ip), vehicle: distilled water + Tween-80) 6 of 6; (dose: 3.75 mg/kg/injection, schedule: Q01DX009 (ip), vehicle: distilled water + Tween-80) 2 of 6; (dose: 7.5 mg/kg/injection, schedule: Q01DX009 (ip), vehicle: distilled water + Tween-80) 0 of 6; (dose: 15.0 mg/kg/injection, schedule: Q01DX009 (ip), vehicle: distilled water + Tween-80) 0 of 6 and 6 of 6; (dose: 30.0 mg/kg/injection, schedule: Q01DX009 (ip), vehicle: distilled water + Tween-80) 1 of 6; (dose: 60.0 mg/kg/injection, schedule: Q01DX009 (ip), vehicle: distilled water + Tween-80) 0 of 6.

For the molecule `O=C(O)C1C2C(=O)N(CO)C(=O)C2C(C(=O)O)C2C3C(=O)N(CO)C(=O)C3C12` (stereo not drawn), the T/C (dose: 400.0 mg/kg/injection, schedule: Q01DX009 (ip), vehicle: water) is 129 and 131 % of control.

For the molecule `Cc1nccn1Cc1ccc(Cl)cc1Cl`, under setting [5], the survivor count is listed as 0 of 6.

Consider `COc1ccc([I+]c2ccc(OC)cc2)cc1`, for which the survivor count reads like this: (dose: 1.5 mg/kg/injection, schedule: Q01DX009 (ip), vehicle: saline with Tween-80) 6 of 6; (dose: 12.5 mg/kg/injection, schedule: Q01DX009 (ip), vehicle: saline) 6 of 6; (dose: 25.0 mg/kg/injection, schedule: Q01DX009 (ip), vehicle: saline) 5 of 6; under setting [4], 0 of 6.

Take `CCCCCSCN(CC)CC`: the survivor count was 6 of 6 (dose: 50.0 mg/kg/injection, schedule: Q01DX009 (ip), vehicle: saline with Tween-80) and 6 of 6 under setting [3].

Consider `C[Si](C)(C)CSCC#N`, for which, under “dose: 400.0 mg/kg/injection, schedule: Q01DX001 (ip), vehicle: saline with Tween-80”, the survivor count is 0 of 6.

As for `CNC(=O)OC/C=C/c1ccccc1`, the survivor count (dose: 400.0 mg/kg/injection, schedule: Q01DX009 (ip), vehicle: saline with Tween-80) is on record as 1 of 6.

Consider `O=[N+]([O-])c1ccc(O)c([N+](=O)[O-])c1`, for which the survivor count is 6 of 6 (dose: 50.0 mg/kg/injection, schedule: Q04DX003 (ip), vehicle: saline with Tween-80); 0 of 5 (dose: 64.0 mg/kg/injection, schedule: Q01DX005 (ip), vehicle: saline with Tween-80); 0 of 6 (dose: 100.0 mg/kg/injection, schedule: Q04DX003 (ip), vehicle: saline with Tween-80); 0 of 5 (dose: 128.0 mg/kg/injection, schedule: Q01DX005 (ip), vehicle: saline with Tween-80).

On to `C=CCNC1=C2C[C@@H](C)C[C@H](OC)[C@H](O)[C@@H](C)/C=C(\C)[C@H](OC(N)=O)[C@@H](OC)/C=C\C=C(/C)C(=O)NC(=CC1=O)C2=O`, for which the survivor count (dose: 25.0 mg/kg/injection, schedule: Q01DX009 (ip), vehicle: distilled water + Tween-80) is listed as 5 of 6.

`CC(=O)NC(CS)C(=O)O` (stereo not drawn): under setting [4], the T/C was 128 % of control. Also, the survivor count (dose: 400.0 mg/kg/injection, schedule: Q01DX009 (ip), vehicle: saline) is on record as 3 of 6.

Regarding `CN(C)CCN(Cc1ccccc1)c1ccc2ccccc2n1`, the survivor count runs as follows: (dose: 50.0 mg/kg/injection, schedule: Q01DX005 (ip), vehicle: Klucel (hydroxypropylcellulose) (HPC)) 3 of 5; (dose: 100.0 mg/kg/injection, schedule: Q01DX005 (ip), vehicle: Klucel (hydroxypropylcellulose) (HPC)) 0 of 5; (dose: 200.0 mg/kg/injection, schedule: Q01DX005 (ip), vehicle: Klucel (hydroxypropylcellulose) (HPC)) 0 of 5.
